Assay: peptide made by a vendor (Fmoc solid-phase peptide synthesis)
Conditions: whole synthesis

maleimido-ethyl-GGSGGSKGSKGSKGSKGSK
purity (crude or final not stated): 95.67%
